In PubChem BioAssay AID540276 (National Center for Advancing Translational Sciences (NCATS), 2011):
“And” between values parts separate entries of the source, which are not always exact repeats. Equal entries are not always repeated. The campaign covered roughly 300,000 compounds. About 5,400 (1.8%) were called active. Inconclusive results, whose numbers are uncertain, are shown with a selection of clear calls. Calls follow the shape of the full dose curve; tested in HEK293 cells. Potencies beside an inconclusive call are fits to weak or partial responses and may not hold up.

assay: qHTS for inhibitors of binding or entry into cells for Marburg Virus; conditions: Marburg virus pseudotyped entry inhibition, cell reporter; series mostly up to 37.8 µM
Potency is read from the fitted curve at half-maximal effect.

SMILES | Potency
COc1ccc(C)cc1NC(=O)CN(c1ccccc1F)S(C)(=O)=O | inconclusive: 6.31 µM [activator, single point]
COc1ccc(C(=O)c2c[nH]c(C(=O)NCCCN3CCOCC3)c2)cc1 | inconclusive: 1.26 µM [inhibitor, partial curve, poor fit]
CSc1cccc(CN2CCCC(C(=O)Nc3cccc(-n4cccn4)c3)C2)c1 (centres undefined) | inactive
Cc1cccc(CSc2nc3c(c(=O)n2C)SCC3)c1 | inconclusive: 12.6 µM [inhibitor, partial curve, poor fit]
CCC1=Nc2ccc(Br)cc2C(c2ccccc2)N1CC(=O)OC (centres undefined) | inconclusive: 35.5 µM [inhibitor, single point]
Cc1ccc(NC(=O)CSc2ccccn2)cc1S(=O)(=O)N1CCOCC1 | inconclusive: 35.5 µM [inhibitor, single point]
CCCNC(=O)N1C2=NC(C(=O)OC)=C(C(=O)OC)[C@@H]3N(C)c4ccccc4[C@]23C[C@H]1C(=O)OC | inactive
Cc1ccc(-c2nnc(NC3CCCCC3)c3ccccc23)cc1S(=O)(=O)N1CCN(C)CC1 | inconclusive: 25.9 µM [inhibitor, single point]
CCCN(CCC)C(=O)CSc1nc2ccccc2c(=O)n1C1CCCC1 | inconclusive: 18.3 µM [inhibitor, single point]
COC(c1ccccc1)c1nnc(CCC(=O)N(C)CCc2ccccc2)o1 (centres undefined) | inactive
Cn1cccc1Cc1nnc(SCC(=O)NCc2ccc3c(c2)OCO3)n1CCc1ccccc1 | inconclusive: 23.1 µM [inhibitor, single point]
COc1ccc(C(=O)N/N=C/c2c[nH]c3ccccc23)cc1 | inactive
C/C(=N\NC(=O)c1cccc(N/N=C(\C)c2ccccc2)c1)c1ccccc1 | inconclusive: 7.08 µM [activator, full curve, poor fit]
CCOC(=O)/C(C#N)=C/N=c1ccc(C)cn1C | inconclusive: 3.98 µM [activator, full curve, poor fit]
COc1cc(/C=C2/N=C(c3ccccc3F)OC2=O)cc(Cl)c1OS(C)(=O)=O | inconclusive: 10.3 µM [inhibitor, partial curve, poor fit]
CCOc1ccccc1NC(=O)c1ccccc1-c1nc(-c2ccccc2)no1 | inconclusive: 18.3 µM [inhibitor, single point]
COC(=O)c1ccc(S(=O)(=O)NCCSc2nnc3c4ccccc4n(C)c3n2)cc1 | inconclusive: 25.9 µM [inhibitor, single point]
Cc1ccc(C(=O)N/N=C/c2c[nH]c3ccccc23)o1 | inconclusive: 10 µM [activator, partial curve]
CCSc1nc2c(sc3ccccc32)c(=O)n1C(C)C | inactive
N#Cc1c2n(c3c(=O)[nH]cnc13)CCCC2 | inactive
COc1ccc(OC)c(NC(=O)CN(c2ccccc2OC)S(=O)(=O)c2ccc(C)cc2)c1 | inactive
COc1cc2c(cc1OC)CN(c1ccc([N+](=O)[O-])cc1Cl)CC2 | inconclusive: 8.2 µM [inhibitor, partial curve]
O=C(NC1CCSC1=O)c1cccc(Cl)c1 (centres undefined) | inactive

2 records drawn at random from the list so far, as already listed:
SMILES | Potency
Cc1ccc(C(=O)N/N=C/c2c[nH]c3ccccc23)o1 | inconclusive: 10 µM [activator, partial curve]
CCC1=Nc2ccc(Br)cc2C(c2ccccc2)N1CC(=O)OC (centres undefined) | inconclusive: 35.5 µM [inhibitor, single point]

Next part.

SMILES | Potency
CCN(CC(=O)NCc1cccs1)C(=O)c1cccc(S(=O)(=O)Nc2ccccc2Cl)c1 | inconclusive: 1.41 µM [inhibitor, partial curve, poor fit]
Cc1ccc(N2C(=O)CC3(CCCC3)CC2=O)cc1 | inactive
CCOc1cc(C2NC(=O)NC(C)=C2C(=O)OC(C)CC)cc(Br)c1O (centres undefined) | inconclusive: 6.51 µM [activator, single point]
COc1cc(/C=N/NC(=O)C2COc3ccccc3O2)ccc1O (centres undefined) | inconclusive: 6.31 µM [activator, single point]
COCCN(CCOC)S(=O)(=O)c1ccc(C(=O)Nc2nc(-c3ccccc3)c(C(=O)c3ccccc3)s2)cc1 | inconclusive: 35.5 µM [activator, single point]
Cc1oc(-c2cccs2)nc1CN1CCN(Cc2ccc(F)c(F)c2)C(CCO)C1 (centres undefined) | inconclusive: 22.4 µM [inhibitor, single point]
CC(=O)c1cc2c(cc1NC(=O)c1ccco1)OCCO2 | inactive
COC(=O)Nc1ccc(S(=O)(=O)N2CCN(c3ccc(F)cc3)CC2)cc1 | inconclusive: 0.291 µM [inhibitor, full curve]
Cc1ccc(C(=O)N2CCN(c3ccccc3O)CC2)cc1S(=O)(=O)N1CCCCC1 | inactive
CC(C)CN(C(=O)C(c1ccccc1)c1ccccc1)c1c(N)n(CC(C)C)c(=O)[nH]c1=O | inconclusive: 35.5 µM [activator, single point]
COc1ccccc1-c1nnc(SCC(=O)Nc2ccc(Cl)cc2Cl)o1 | inactive
CCCCN=C1NN=C(c2ccc(C)c(C)c2)CS1 | inconclusive: 35.5 µM [inhibitor, single point]
COc1cccc(-c2cc(C(=O)Nc3ccc(OC)cc3OC)no2)c1 | inactive
COc1ccc(N(C(=O)/C=C/c2ccccc2)C2=CC3CCC(C2)N3C)cc1 (centres undefined) | inconclusive: 22.4 µM [inhibitor, single point]
COCCNC(=O)COc1ccc(Oc2ccccc2)cc1 | inactive
COc1cc(/C=C/[N+](=O)[O-])ccc1OC(=O)c1cc2ccccc2oc1=O | inactive
COc1cc2ccccc2cc1C(=O)Nc1ccc2oc(=O)ccc2c1 | inconclusive: 35.5 µM [inhibitor, single point]
CCC(C)[C@H](NC(=O)OC(C)(C)C)C(=O)N/N=C/c1ccc2cc(OC)ccc2n1 (some centres undefined) | inconclusive: 35.5 µM [inhibitor, single point]
CC(C)CCOCC(=O)Nc1cccc(C(=O)O)c1 | inconclusive: 2.06 µM [activator, full curve, poor fit]
CC1CCCCN1C(=O)c1cc(-c2ccc3c(c2)OCO3)on1 (centres undefined) | inconclusive: 7.94 µM [inhibitor, partial curve, poor fit]
C=CCOc1ccc(C2=NOC(C(=O)Nc3ccc4c(c3)OCCO4)C2)cc1OC (centres undefined) | inconclusive: 35.5 µM [inhibitor, single point]
O=C(CCCN1C(=O)c2ccccc2C1=O)NCC1CCCO1 (centres undefined) | inconclusive: 2.91 µM [activator, full curve, poor fit]
CN(C)CC1C2CCC(C2)C1O (centres undefined) | inactive

SMILES | Potency
COC(=O)CSc1nc2cc3c(cc2cc1C)OCO3 | inactive
CS(=O)(=O)N(CC(=O)NCCC1=CCCCC1)c1ccc2c(c1)OCO2 | inactive
CCCCOc1ccccc1C(=O)NNC(=S)NC(=O)c1ccccc1[N+](=O)[O-] | inconclusive: 17.8 µM [inhibitor, partial curve, poor fit]
COc1cc(OC)cc(C(=O)NC(=S)NNC(=O)Cc2cccs2)c1 | inconclusive: 0.231 µM [inhibitor, single point]
CN(C)CCN=Cc1c(O)n(Cc2ccc3c(c2)OCO3)c(=O)c2ccccc12 | inactive
CC(C)C(C)NC(=O)COc1ccc(OCc2ccccc2)cc1 (centres undefined) | inconclusive: 35.5 µM [inhibitor, single point]
O=C(Nc1cccc(Cl)c1)Nc1ccccc1-n1ccnc1 | inactive
O=C(COC(=O)/C=C/c1ccc(Cl)cc1)NC(=O)NCc1ccccc1 | inconclusive: 11.2 µM [inhibitor, partial curve, poor fit]
Clc1ccc(-c2nnc3ccccn23)cc1 | inconclusive: 0.708 µM [inhibitor, partial curve, poor fit]
N/C(=N\OC(=O)c1cc(Cl)ccc1Cl)c1ccccn1 | active: 4.11 µM
CC(C)C(=O)N1CCN(c2ccc([N+](=O)[O-])c(NC(C)c3ccccc3)c2)CC1 (centres undefined) | inconclusive: 0.794 µM [activator, single point]
CCOc1ccc(C(=O)Nc2ccccc2-c2ccccc2)cc1Cl | inactive
CC(=O)C(N=Nc1ccccc1)(Sc1nnc(-c2ccccc2)n1-c1ccccc1)C(=O)Nc1ccccc1 (centres undefined) | inconclusive: 0.082 µM [inhibitor, full curve, poor fit]
COc1ccc(CNC(=O)C(=O)NCC2OCCN2S(=O)(=O)c2ccc(C)cc2)cc1 (centres undefined) | inconclusive: 3.98 µM [activator, single point]
Cc1ccc(S(=O)(=O)c2c(C)nn(C(C)(C)C)c2OC(=O)c2ccc(Br)o2)cc1 | inactive and inconclusive: 12.6 µM [inhibitor, partial curve, poor fit]
O=C(Nc1ccc(N2CCCCC2)cc1)c1ccc2c(c1)OCCO2 | inconclusive: 2.06 µM [activator, partial curve, poor fit]
O=C(Cc1ccc2c(c1)CCCC2)Nc1ccccc1Br | inactive
CC1=NN(c2cccc(C(=O)O)c2)C(=O)/C1=C\C=C/c1ccccc1 | inconclusive: 2.24 µM [inhibitor, partial curve, poor fit]
CCCCCOC(=O)C1=C(C)NC(=O)NC1c1ccccc1OCC (centres undefined) | inconclusive: 22.4 µM [inhibitor, single point]
O=C(Nc1ccc(F)cc1)N1CCN(c2nc3ccccc3s2)CC1 | inactive
Cc1ccccc1C(=O)N/C(=C/c1ccc(-c2cccnc2Cl)o1)C(=O)NCCCN1CCN(C)CC1 | inconclusive: 0.58 µM [inhibitor, full curve, poor fit]
C[C@@H](NC(=O)[C@@H]1Cc2ccccc2CN1C(=O)OC(C)(C)C)C(=O)NCC1CCCO1 (some centres undefined) | inactive
Cc1oc(-c2ccccc2F)nc1Cn1c(SCc2cccc(Cl)c2)nc2ccncc21 | inconclusive: 5.62 µM [activator, single point]
